Measurements taken from US20250270289A1, “SEQUENCE-DEFINED POLYMERS WITH ONE OR MORE AZIDES, METHODS OF MAKING, AND METHODS OF USE THEREOF” (Yale University, priority 2021, published 2025).
Not every detail of the peptide structures is certain; ends, links or a residue may be inferred. Non-standard residues stand in square brackets, D forms with d. Residues, ends and D or L forms follow the SMILES beside them. *: point of attachment. FITC = O=C1OC2(c3ccc(O)cc3Oc3cc(O)ccc32)c2ccc(NC(=S)*)cc21; pY = N[C@@H](Cc1ccc(OP(=O)(O)O)cc1)C(=O)O; Ahx = NCCCCCC(=O)O

Amino acid sequences for entries named in this document (tags omitted). Residues count along the entry.
UniProt P12931, 151-248 limits assumed: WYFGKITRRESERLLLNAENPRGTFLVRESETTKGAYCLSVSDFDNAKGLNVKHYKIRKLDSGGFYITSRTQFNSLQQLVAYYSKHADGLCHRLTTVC

Biological target: Src SH2 domain (Homo sapiens, UniProt P12931)
Assay: Fluorescence polarization assay, direct binding and competition with FITC-pTyrEEI
Settings: direct binding to GST-Src SH2, one-site model

In the case of `CC[C@H](C)[C@H](NC(=O)[C@@H]1CCCN1C(=O)[C@@H](NC(=O)[C@H](CCC(=O)O)NC(=O)[C@H](CCC(=O)O)NC(=O)[C@H](Cc1ccc(OP(=O)(O)O)cc1)NC(=O)[C@H](CCC(N)=O)NC(=O)[C@@H]1CCCN1C(=O)[C@H](CCC(=O)O)NC(=O)CCCCCNC(=S)Nc1ccc2c(c1)C(=O)OC21c2ccc(O)cc2Oc2cc(O)ccc21)[C@@H](C)CC)C(=O)N[C@@H](Cc1ccc(O)cc1)C(=O)N[C@@H](CC(C)C)C(=O)O` [FITC-pTyr peptide, reference compound] ({FITC-Ahx}-EPQ[pY]EEIPIYL-OH; C-terminus assumed), the Kd is reported as 280 nM.
